In one experiment the target is T1, Cdt1 (115-353) (UniProt Q9H211).
T1 sequence: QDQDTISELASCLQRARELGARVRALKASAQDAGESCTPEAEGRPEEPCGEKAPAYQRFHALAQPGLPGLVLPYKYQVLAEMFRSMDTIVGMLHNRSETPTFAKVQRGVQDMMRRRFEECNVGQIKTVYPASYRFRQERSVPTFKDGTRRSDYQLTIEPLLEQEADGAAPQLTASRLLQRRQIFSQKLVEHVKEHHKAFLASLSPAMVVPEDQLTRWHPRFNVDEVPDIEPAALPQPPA
The experiment in a line: SEC; equimolar amounts of purified tCdt1 and purified tGeminin-tIdas mixed; elution profile; data not shown; both purified.

For experiment [1], the target named is full-length Geminin (Geminin-HA and Geminin-GFP) (human) (UniProt O75496). As to the kind of experiment: co-IP; U2OS cells transfected with Geminin-HA, Geminin-GFP and Idas-GFP, collected 24 h post-transfection; anti-HA (12CA5) immunoprecipitation, blots for GFP and HA.
The target is the same in experiment [2]. The experiment in a line: co-IP; U2OS cells transfected with Geminin-HA, Geminin-GFP and GFP, collected 24 h post-transfection; anti-HA (12CA5) immunoprecipitation, blots for GFP and HA.

These are yes or no findings as the source states them, for the method shown. For part of these data: In cells and extracts the contact can be indirect. Some binding calls cover weakened binding; strength is not graded here. For part of these data: Sequences can lack the tags named with a protein.

Among the data in article PMC3814758, “The Geminin and Idas Coiled Coils Preferentially Form a Heterodimer That Inhibits Geminin Function in DNA Replication Licensing*” (The Journal of Biological Chemistry, 2013) are binding values, retold here.

B1: tIdas-tGeminin heterodimer (complex)
chain 1: PDVPPPEQYWKEVADQNQRALGDALVENNQLHVTLTQKQEEIASLKERNVQLKELASRTRHLASVLDKLMITQ
chain 2: TQESFDLMIKENPSSQYWKEVAEKRRKALYEALKENEKLHKEIEQKDNEIARLKKENKELAEVAEHVQYMAELIERLNG
notes: Idas (Multicilin), residues 173-245; Geminin, human, residues 82-160; Preformed heterodimer; also called tGeminin-tIdas; Idas-Geminin heterodimer; source: co-expression in Escherichia coli, purified (IMAC by the His tag on Idas, size exclusion chromatography); copies: 1 + 1
With B1, in the experiment with Cdt1 (115-353), the binding entry is given as “binds”.

B2: full-length Geminin (Geminin-HA and Geminin-GFP) (protein, UniProt O75496 1-209)
chain: MNPSMKQKQEEIKENIKNSSVPRRTLKMIQPSASGSLVGRENELSAGLSKRKHRNDHLTSTTSSPGVIVPESSENKNLGGVTQESFDLMIKENPSSQYWKEVAEKRRKALYEALKENEKLHKEIEQKDNEIARLKKENKELAEVAEHVQYMAELIERLNGEPLDNFESLDNQEFDSEEETVEDSLVEDSEIGTCAEGTVSSSTDAKPCI
B2: the binding result in experiment [1] was “no binding (condition: in the presence of Idas-GFP)”; in experiment [2], “binds”.
